Laboratory results from patent US20220362275A1, “Method and Compositions for Treating Glioblastoma” (PHOENIX BIOTECHNOLOGY, INC., priority 2019, published 2022).
For at least one compound, name, drawing or mass did not settle the structure.

System: U87 GBM tumor cells
Assay: Mouse orthotopic injection model, radiotherapy, chemotherapy and pharmacotherapy (Example 6)
Assay type: in vivo

SMILES: Cn1nnc2c(C(N)=O)ncn2c1=O [TMZ, temozolomide]
- order of overall survival (in the group) over time, FIG. 2B (Group 2 TMZ 32 mg/Kg, Group 3 PBI-05204 40 mg/Kg p.o., Group 6 PBI-05204 and TMZ): Group 6>Group 2>Group 3>Group 1 (control)
- order of overall survival (in the group) over time, FIG. 2D (Group 3 PBI-05204, Group 7 XRT and TMZ, Group 8 XRT, TMZ and PBI-05204): Group 8>Group 7>Group 3>Group 1 (control)
